Source: paper doi:10.1101/2022.03.04.22271462
No constants are given. Whether binding was seen depends on the method and setting. Binding seen in cells or lysates may run through a third protein. Some entries that bind do so weakly or less than the wild type.

By UniProt entry, the sequences of proteins in these tests, tags left out. Where a name states a change or a piece, a line headed by the entry shows the natural chain unless it says otherwise. Chains listed by the source or under a name are the forms on record and can include a tag or linker.
UniProt Q9Y6X0: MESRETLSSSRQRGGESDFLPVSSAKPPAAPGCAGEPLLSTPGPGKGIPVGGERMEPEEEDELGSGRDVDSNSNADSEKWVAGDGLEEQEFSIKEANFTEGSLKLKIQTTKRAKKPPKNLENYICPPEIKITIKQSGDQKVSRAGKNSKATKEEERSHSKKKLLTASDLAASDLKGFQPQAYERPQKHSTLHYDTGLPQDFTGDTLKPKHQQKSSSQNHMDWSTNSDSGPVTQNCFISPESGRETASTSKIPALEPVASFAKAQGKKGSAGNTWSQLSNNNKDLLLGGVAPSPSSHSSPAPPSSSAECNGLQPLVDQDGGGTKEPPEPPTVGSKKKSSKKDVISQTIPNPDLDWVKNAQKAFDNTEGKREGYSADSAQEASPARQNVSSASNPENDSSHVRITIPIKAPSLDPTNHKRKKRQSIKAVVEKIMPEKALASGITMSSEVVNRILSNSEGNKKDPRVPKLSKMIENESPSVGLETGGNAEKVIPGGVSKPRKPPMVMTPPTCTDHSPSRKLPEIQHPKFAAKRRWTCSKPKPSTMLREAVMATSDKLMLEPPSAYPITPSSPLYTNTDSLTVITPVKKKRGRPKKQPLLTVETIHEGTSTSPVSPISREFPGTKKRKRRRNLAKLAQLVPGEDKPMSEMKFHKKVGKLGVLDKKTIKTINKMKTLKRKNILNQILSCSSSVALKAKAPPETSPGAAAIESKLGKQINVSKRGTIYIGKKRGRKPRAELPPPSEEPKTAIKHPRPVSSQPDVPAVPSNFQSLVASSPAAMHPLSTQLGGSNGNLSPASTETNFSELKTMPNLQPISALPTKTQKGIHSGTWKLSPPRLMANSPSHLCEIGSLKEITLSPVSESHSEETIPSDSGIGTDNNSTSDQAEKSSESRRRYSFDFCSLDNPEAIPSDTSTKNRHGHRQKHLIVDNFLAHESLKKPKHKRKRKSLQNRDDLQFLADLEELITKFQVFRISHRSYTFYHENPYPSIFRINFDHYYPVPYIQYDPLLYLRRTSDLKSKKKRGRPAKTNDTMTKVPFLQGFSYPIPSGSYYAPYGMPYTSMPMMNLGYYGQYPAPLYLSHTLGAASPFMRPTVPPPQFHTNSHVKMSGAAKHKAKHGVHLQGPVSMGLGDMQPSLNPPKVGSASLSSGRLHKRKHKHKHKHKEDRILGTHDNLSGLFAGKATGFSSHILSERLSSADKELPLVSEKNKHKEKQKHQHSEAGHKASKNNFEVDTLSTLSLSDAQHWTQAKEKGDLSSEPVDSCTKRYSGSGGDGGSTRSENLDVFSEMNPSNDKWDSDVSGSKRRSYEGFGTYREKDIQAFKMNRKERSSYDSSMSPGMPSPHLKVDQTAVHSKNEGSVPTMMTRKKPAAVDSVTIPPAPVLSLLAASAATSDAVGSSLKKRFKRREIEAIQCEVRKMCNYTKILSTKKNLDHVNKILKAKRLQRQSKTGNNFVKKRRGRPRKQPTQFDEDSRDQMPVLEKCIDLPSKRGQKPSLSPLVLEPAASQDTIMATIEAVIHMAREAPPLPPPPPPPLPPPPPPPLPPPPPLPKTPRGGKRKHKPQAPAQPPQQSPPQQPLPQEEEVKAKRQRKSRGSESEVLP
FLAG-SETBP1 p.(Glu858Lys) (Q9Y6X0, form named): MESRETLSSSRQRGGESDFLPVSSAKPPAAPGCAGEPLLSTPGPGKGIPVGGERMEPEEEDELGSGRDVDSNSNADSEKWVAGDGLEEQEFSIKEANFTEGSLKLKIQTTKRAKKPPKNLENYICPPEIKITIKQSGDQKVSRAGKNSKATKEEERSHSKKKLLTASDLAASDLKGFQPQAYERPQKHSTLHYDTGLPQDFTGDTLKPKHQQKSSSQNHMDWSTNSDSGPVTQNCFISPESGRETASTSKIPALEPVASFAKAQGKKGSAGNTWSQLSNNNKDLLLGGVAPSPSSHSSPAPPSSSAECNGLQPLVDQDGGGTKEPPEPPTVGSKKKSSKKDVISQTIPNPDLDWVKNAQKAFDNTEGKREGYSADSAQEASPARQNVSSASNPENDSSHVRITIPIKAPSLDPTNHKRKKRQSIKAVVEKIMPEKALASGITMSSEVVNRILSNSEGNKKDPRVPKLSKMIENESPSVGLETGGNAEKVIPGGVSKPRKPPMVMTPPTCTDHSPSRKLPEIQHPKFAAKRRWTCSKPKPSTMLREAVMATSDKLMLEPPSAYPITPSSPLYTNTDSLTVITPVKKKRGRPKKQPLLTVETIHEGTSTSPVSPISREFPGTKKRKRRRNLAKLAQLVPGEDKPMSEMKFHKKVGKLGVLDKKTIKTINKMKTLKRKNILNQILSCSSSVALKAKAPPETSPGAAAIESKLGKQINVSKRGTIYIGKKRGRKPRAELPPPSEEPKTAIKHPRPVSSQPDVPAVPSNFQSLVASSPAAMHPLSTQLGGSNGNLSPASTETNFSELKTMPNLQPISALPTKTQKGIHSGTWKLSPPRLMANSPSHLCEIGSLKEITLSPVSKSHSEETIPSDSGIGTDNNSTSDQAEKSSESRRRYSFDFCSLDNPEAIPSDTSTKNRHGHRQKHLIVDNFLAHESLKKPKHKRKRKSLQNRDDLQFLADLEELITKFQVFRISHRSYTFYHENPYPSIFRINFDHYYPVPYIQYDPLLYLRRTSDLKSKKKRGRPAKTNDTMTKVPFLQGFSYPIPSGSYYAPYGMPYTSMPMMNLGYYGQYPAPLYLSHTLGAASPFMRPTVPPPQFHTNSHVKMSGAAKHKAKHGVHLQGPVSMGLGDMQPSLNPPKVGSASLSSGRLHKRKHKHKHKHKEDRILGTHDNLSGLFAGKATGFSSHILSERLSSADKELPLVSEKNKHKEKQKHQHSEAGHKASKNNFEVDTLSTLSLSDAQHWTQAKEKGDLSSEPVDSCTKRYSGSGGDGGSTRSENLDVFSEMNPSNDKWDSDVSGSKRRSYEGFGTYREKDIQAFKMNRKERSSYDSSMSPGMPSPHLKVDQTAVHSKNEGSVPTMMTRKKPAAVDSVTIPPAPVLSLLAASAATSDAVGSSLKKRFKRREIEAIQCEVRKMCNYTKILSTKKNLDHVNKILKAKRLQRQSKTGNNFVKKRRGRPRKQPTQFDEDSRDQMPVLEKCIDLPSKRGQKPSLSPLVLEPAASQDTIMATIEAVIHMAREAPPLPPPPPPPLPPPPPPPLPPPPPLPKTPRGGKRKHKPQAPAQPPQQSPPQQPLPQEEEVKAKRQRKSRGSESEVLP
FLAG-SETBP1 p.(Leu957Pro) (Q9Y6X0, form named): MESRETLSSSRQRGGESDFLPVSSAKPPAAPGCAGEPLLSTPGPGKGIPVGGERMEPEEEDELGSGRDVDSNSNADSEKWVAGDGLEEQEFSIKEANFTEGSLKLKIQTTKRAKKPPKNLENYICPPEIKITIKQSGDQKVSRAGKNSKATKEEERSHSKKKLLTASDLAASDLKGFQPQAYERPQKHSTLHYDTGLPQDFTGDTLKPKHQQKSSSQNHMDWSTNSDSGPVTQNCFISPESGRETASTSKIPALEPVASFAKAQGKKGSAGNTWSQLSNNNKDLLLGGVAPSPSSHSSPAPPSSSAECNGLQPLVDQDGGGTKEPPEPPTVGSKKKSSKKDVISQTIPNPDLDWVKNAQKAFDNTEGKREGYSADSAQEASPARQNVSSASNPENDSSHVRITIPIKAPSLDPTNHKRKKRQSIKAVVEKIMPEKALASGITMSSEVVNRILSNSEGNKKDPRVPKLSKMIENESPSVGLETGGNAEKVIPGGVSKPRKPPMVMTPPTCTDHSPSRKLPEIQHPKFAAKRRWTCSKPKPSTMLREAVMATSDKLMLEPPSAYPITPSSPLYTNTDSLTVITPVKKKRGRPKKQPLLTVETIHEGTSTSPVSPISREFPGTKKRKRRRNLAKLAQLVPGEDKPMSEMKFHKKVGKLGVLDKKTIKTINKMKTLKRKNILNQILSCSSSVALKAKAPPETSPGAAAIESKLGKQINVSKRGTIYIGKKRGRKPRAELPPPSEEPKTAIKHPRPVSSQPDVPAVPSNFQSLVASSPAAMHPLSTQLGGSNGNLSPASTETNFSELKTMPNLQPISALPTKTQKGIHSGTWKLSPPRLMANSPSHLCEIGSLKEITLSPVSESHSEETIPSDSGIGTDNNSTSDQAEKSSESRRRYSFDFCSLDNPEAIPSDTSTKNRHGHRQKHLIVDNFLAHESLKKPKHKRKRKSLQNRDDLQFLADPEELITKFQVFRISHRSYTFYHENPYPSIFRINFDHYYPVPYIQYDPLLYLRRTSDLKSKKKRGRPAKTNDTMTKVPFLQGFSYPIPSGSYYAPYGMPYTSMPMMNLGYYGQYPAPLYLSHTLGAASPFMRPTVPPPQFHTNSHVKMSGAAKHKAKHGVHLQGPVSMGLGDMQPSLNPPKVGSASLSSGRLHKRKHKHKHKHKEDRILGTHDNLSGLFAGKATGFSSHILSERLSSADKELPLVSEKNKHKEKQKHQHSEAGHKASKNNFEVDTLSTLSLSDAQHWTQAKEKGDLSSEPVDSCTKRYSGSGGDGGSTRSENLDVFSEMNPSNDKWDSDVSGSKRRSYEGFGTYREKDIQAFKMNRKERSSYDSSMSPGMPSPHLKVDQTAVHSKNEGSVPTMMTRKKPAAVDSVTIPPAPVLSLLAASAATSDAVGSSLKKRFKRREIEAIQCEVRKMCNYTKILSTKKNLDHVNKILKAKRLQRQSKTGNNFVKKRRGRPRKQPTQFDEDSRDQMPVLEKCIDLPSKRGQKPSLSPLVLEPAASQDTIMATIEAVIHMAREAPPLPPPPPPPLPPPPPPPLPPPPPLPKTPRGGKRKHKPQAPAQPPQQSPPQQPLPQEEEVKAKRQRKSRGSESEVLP
UniProt Q01105: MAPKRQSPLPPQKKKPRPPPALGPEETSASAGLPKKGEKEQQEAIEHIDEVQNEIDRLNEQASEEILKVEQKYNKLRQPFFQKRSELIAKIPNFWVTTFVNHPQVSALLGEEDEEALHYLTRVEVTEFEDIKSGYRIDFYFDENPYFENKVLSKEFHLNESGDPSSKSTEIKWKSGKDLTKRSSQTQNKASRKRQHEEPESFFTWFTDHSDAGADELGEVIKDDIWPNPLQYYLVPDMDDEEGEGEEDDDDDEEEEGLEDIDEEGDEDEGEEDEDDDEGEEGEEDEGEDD

How the values were obtained:
Assay in all cases: co-IP
[1] = target: FLAG-SETBP1 wild type (full-length SETBP1 with C-terminal Myc-DDK tag, pCMV-Entry-SETBP1) (human) (UniProt Q9Y6X0)
[2] = target: FLAG-SETBP1 p.(Glu858Lys) (human) (UniProt Q9Y6X0)
[3] = target: FLAG-SETBP1 p.(Leu957Pro) (human) (UniProt Q9Y6X0)
[4] = target: FLAG-SETBP1 p.(Thr962del) (human) (UniProt Q9Y6X0)

Measured: binding

GFP-SET (from UniProt Q01105 1-290)
binds: all assays above
